Source: article doi:10.1101/2022.03.13.484121
No constants are given. Whether binding was seen depends on the method and setting. Some entries that bind do so weakly or less than the wild type.

Molecular target: native source meprin α from mouse urine (mouse (endogenous in urine)) (UniProt P28825)
Test: SEC

B1: native source meprin α from mouse urine (enzyme, UniProt P28825 65-713)
chain: NAMRDPSSRWKLPIPYILADNLELNAKGAILHAFEMFRLKSCVDFKPYEGESSYIIFQKLSGCWSMIGDQQVGQNISIGEGCDFKATIEHEILHALGFFHEQSRTDRDDYVNIWWDQIITDYEHNFNTYDDNTITDLNTPYDYESLMHYGPFSFNKNESIPTITTKIPEFNTIIGQLPDFSAIDLIRLNRMYNCTATHTLLDHCDFEKTNVCGMIQGTRDDADWAHGDSSQPEQVDHTLVGQCKGAGYFMFFNTSLGARGEAALLESRILYPKRKQQCLQFFYKMTGSPADRFEVWVRRDDNAGKVRQLAKIQTFQGDSDHNWKIAHVTLNEEKKFRYVFLGTKGDPGNSSGGIYLDDITLTETPCPAGVWTIRNISQILENTVKGDKLVSPRFYNSEGYGVGVTLYPNGRITSNSGFLGLTFHLYSGDNDAILEWPVENRQAIMTILDQEADTRNRMSLTLMFTTSKNQTSSAINGSVIWDRPSKVGVYDKDCDCFRSLDWGWGQAISHQLLKRRNFLKGDSLIIFVDFKDLTHLNRTEVPASARSTMPRGLLLQGQESPALGESSRKAMLEESLPSSLGQRHPSRQKRSVENTGPMEDHNWPQYFRDPCDPNPCQNEGTCVNVKGMASCRCVSGHAFFYAGERCQAM
Q: How did the binding turn out when B1 was run?
A: binds
